# According to the supplement of paper PMC12819154, “High-throughput peptide-centric local stability assay extends protein–ligand identification to membrane proteins, tissues and bacteria” (Nature Structural & Molecular Biology, 2025):
# Chains of the proteins cited; added tags and fusions are not shown. Lines headed by an entry give the natural chain unless they say otherwise; changes in a name come on top.
# UniProt Q8NHP6: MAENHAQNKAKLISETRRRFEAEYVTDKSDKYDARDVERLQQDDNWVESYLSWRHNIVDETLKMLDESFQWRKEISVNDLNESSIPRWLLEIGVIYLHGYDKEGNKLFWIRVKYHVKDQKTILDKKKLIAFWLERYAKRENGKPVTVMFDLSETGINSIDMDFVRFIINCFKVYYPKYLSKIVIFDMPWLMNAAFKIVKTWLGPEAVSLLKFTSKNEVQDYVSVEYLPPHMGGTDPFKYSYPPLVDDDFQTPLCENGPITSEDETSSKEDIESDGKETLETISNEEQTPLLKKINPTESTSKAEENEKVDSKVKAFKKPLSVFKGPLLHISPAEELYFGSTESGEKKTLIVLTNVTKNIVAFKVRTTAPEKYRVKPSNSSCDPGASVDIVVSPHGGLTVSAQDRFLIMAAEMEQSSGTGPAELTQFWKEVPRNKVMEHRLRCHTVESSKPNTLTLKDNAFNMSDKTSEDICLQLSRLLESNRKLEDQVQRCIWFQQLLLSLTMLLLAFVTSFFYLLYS
# UniProt Q8NEV1, whole entry, looked up: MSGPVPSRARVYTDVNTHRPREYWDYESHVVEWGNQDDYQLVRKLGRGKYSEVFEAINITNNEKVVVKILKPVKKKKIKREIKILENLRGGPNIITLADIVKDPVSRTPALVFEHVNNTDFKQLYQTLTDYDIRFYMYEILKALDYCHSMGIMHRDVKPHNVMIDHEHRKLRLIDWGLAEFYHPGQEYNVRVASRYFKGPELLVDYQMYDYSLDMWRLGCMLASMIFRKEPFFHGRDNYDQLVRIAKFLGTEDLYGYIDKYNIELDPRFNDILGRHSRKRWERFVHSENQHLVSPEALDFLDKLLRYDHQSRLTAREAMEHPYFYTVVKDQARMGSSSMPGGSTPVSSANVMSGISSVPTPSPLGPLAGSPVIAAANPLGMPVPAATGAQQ
# UniProt Q8N2Y8: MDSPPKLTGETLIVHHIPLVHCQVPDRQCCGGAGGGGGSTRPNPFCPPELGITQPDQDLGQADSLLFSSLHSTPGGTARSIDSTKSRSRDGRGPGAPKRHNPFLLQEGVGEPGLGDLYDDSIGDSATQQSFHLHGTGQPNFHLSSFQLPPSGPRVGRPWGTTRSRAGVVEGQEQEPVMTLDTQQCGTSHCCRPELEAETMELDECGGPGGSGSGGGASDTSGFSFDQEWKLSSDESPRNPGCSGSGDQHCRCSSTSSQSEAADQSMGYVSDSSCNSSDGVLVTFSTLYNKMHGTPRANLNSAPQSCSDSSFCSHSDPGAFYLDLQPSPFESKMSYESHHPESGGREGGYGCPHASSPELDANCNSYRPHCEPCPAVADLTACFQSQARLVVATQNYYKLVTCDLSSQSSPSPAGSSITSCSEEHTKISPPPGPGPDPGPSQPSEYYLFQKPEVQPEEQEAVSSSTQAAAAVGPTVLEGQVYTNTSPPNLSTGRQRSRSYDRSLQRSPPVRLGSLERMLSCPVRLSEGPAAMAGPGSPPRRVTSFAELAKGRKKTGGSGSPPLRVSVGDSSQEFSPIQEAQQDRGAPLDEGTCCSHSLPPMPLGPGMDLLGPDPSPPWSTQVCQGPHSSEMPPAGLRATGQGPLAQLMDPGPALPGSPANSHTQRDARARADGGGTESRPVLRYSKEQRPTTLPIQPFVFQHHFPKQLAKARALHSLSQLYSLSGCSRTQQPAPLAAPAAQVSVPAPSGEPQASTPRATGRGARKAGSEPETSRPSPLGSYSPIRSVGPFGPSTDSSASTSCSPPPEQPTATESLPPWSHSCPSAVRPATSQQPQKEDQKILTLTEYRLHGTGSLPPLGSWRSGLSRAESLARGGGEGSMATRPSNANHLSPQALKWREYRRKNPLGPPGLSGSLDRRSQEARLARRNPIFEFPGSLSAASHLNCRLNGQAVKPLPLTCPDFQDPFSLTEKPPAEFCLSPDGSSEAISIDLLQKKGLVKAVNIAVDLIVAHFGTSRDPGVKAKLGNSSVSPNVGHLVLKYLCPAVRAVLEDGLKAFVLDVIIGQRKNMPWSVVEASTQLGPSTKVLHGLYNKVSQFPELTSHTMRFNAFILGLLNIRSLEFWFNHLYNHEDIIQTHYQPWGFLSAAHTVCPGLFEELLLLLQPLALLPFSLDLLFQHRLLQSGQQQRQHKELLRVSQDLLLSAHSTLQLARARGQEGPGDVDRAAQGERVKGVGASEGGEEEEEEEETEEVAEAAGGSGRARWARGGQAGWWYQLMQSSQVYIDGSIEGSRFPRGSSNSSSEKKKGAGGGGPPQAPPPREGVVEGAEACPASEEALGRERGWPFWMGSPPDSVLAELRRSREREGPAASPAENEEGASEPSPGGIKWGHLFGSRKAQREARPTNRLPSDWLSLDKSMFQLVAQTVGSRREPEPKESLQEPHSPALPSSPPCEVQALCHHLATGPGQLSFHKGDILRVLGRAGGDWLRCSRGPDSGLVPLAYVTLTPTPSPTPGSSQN
# UniProt Q8NF99: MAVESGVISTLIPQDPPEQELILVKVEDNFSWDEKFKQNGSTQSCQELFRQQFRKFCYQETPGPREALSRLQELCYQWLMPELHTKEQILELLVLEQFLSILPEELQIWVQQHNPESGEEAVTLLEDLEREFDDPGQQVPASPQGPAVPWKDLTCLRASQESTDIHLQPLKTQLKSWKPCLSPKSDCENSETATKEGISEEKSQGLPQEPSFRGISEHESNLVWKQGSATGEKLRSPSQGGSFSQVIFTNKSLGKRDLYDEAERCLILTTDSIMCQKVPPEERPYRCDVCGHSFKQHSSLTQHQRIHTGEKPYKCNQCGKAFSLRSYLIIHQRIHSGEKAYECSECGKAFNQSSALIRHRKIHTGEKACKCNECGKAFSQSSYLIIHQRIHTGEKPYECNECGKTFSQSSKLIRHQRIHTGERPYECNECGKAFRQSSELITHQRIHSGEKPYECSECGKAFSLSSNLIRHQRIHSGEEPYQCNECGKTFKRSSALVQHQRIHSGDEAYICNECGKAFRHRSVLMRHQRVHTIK
# UniProt Q8NFU7: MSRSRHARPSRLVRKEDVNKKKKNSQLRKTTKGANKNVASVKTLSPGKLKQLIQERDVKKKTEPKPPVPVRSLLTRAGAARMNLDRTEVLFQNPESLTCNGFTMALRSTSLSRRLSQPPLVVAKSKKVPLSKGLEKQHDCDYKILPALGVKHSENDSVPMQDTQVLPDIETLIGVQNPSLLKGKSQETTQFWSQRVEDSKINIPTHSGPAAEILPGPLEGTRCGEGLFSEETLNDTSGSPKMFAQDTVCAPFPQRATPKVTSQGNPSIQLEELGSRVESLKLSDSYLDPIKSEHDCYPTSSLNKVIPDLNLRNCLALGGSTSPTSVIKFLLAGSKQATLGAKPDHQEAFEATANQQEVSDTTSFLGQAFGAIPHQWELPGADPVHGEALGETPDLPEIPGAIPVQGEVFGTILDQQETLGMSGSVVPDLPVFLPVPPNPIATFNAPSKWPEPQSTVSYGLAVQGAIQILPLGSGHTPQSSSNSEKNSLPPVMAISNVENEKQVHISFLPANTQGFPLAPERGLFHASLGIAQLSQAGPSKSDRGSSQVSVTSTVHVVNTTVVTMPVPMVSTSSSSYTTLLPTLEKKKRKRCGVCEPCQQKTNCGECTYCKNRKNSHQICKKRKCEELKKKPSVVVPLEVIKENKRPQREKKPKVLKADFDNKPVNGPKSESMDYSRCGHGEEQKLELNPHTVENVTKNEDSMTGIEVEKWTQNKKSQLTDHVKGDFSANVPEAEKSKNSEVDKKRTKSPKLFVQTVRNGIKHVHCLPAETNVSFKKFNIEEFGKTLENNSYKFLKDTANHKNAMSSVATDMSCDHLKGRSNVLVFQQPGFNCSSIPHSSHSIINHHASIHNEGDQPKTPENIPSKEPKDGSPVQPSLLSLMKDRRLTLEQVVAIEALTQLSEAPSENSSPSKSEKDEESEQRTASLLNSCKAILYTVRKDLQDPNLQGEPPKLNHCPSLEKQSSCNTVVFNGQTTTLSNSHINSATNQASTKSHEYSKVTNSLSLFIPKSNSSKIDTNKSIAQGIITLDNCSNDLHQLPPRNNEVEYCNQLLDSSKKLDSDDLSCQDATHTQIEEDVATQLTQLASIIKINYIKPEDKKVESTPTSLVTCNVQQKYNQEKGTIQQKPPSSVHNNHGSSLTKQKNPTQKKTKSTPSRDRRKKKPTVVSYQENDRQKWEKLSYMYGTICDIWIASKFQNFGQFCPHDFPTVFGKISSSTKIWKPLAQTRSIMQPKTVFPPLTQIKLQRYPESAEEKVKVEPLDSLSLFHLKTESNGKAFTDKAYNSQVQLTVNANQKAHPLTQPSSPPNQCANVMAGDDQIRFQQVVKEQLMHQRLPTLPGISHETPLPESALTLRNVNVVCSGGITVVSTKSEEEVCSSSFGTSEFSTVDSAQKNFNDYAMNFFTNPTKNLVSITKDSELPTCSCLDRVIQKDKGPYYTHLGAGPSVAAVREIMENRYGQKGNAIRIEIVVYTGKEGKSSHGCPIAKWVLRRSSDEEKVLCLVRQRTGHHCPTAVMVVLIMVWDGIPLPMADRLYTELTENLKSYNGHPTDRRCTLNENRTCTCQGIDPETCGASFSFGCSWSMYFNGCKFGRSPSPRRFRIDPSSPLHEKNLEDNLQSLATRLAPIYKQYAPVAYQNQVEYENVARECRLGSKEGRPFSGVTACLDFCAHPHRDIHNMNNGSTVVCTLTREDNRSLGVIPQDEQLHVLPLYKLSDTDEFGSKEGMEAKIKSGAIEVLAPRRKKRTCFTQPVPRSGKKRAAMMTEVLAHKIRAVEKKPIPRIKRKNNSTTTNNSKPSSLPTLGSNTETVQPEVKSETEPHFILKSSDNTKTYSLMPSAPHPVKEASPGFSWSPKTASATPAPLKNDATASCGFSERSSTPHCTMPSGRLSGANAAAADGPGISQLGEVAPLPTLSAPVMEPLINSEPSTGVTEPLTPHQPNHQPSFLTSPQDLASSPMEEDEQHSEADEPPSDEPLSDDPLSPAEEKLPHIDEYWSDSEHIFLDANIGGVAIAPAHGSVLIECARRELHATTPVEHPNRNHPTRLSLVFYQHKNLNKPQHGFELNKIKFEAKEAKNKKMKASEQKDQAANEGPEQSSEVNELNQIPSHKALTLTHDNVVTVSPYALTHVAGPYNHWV
# UniProt Q8NCA9: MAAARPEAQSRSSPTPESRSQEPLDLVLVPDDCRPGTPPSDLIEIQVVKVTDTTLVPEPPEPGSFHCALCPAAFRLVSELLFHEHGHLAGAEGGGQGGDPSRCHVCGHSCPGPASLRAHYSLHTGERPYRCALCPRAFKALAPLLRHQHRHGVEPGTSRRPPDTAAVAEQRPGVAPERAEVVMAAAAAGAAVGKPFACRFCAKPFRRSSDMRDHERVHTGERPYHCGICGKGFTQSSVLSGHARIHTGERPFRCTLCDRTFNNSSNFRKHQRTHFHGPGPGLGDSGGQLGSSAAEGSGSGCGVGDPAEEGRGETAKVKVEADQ
# UniProt Q8NEZ2: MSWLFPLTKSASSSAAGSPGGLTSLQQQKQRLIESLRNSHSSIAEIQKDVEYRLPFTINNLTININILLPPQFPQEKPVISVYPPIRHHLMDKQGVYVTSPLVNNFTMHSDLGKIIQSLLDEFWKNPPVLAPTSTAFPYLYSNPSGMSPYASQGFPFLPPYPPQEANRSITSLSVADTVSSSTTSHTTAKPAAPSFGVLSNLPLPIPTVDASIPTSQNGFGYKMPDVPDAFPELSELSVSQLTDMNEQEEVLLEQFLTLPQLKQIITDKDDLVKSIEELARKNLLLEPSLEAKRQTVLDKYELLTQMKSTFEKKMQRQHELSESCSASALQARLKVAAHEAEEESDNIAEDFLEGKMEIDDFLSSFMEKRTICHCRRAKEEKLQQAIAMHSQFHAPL
# UniProt Q8N335: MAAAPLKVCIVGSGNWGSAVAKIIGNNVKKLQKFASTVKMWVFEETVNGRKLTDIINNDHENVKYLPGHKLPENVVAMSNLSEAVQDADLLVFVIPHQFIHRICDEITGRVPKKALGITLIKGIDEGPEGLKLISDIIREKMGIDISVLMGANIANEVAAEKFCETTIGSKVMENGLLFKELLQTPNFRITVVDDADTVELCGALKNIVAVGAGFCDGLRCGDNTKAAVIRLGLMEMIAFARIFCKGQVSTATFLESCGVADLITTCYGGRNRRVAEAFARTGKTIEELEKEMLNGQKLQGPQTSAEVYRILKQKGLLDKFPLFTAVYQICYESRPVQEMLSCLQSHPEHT
# This is one part of the list. Most values lie at the level of the controls, where differences are scatter.
# Compound: Cc1nc(Nc2ncc(C(=O)Nc3c(C)cccc3Cl)s2)cc(N2CCN(CCO)CC2)n1 [dasatinib]
# Assay: log2 fold change of tryptic peptide abundance, ligand vs vehicle (limited proteolysis) (log2 ratio); higher = more trypsin-susceptible (destabilized)
# Conditions: ligand concentration: 5 uM; sample: K562 cleared lysate
row,Target,log2 fold change
1,"MOSPD2 (peptide sequence: KINPTESTSK, peptide start residue: 293) (UniProt Q8NHP6)",-0.308
2,"UniProt Q8NEV1 (peptide sequence: ARVYTDVNTHRPR, peptide start residue: 9)",-0.25
3,"UniProt Q8N8Z8 (peptide sequence: THTGEKPYECKQCGK, peptide start residue: 272)",0.407
4,"RUSC2 (peptide sequence: NPGCSGSGDQHCR, peptide start residue: 239) (UniProt Q8N2Y8)",1.48
5,"UniProt Q8NCP5 (peptide sequence: TLELPGPSETGRR, peptide start residue: 253)",0.215
6,"UniProt Q8NF99 (peptide sequence: SQGLPQEPSFR, peptide start residue: 203)",0.0205
7,"TET1 (peptide sequence: KKPSVVVPLEVIK, peptide start residue: 629) (UniProt Q8NFU7)",-0.562
8,"UniProt Q8NCA9 (peptide sequence: CHVCGHSCPGPASLR, peptide start residue: 103)",0.242
9,"VPS37A (peptide sequence: QTVLDKYELLTQMK, peptide start residue: 295) (UniProt Q8NEZ2)",0.119
10,"TAB3 (peptide sequence: LKSEVNGMEHDLMQR, peptide start residue: 543) (UniProt Q8N5C8)",-0.643
11,"GPD1L (peptide sequence: KALGITLIK, peptide start residue: 114) (UniProt Q8N335)",-0.172

# From no. 2 as far as 3, copied from above:
row,Target,log2 fold change
2,"UniProt Q8NEV1 (peptide sequence: ARVYTDVNTHRPR, peptide start residue: 9)",-0.25
3,"UniProt Q8N8Z8 (peptide sequence: THTGEKPYECKQCGK, peptide start residue: 272)",0.407
